According to PubChem BioAssay AID2685 (National Center for Advancing Translational Sciences (NCATS), 2010):
The list shows a part of the results. Further columns of the screen follow, without active or inactive calls. Most of these compounds were active or inconclusive in the main read-out, so they are no random draw. Words in brackets tell the shape of the fitted curve; partial curves, single points and poor fits give uncertain potencies.

Experiment: qHTS Assay for Lipid Storage Modulators in Drosophila S3 Cells;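 on cell number change: cells counted by Cell Tracker Red CMTPX staining in the red channel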
Details: BODIPY lipid droplet fluorescence, 18-24 h; for cell number change: measured here: cell count max response, cells fed with added oleic acid
Method in brief: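 Drosophila S3 cells got compounds at several concentrations plus oleic acid (400 uM solution). Laser-scanning cytometry with 488 nm excitation read lipid droplets at 500-530 nm and cells at 575-640 nm. Percent activity was relative to 20 uM Triacsin C.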

[1] = measured here: cell number channel AC50, cells fed with added oleic acid
[2] = measured here: lipid fluorescence (Fed channel) AC50, cells fed with added oleic acid

Nc1nnc(SCC(=O)NC2CCCCCC2)s1
cell number change: -6.5%

CC(=O)Nc1ccc(NC(=O)c2ccc(COc3ccc(C)cc3)o2)cc1
cell number change: 42.2% | AC50 [1]: 29.1 µM [rising, single point]

O=C(CNC(=O)c1ccco1)NC1CCCCCC1
cell number change: -13.3%

COc1cccc(CNC(=O)COC(=O)CCCNC(=O)c2ccc(Cl)cc2)c1
cell number change: -6.64% | AC50 [2]: 32.6 µM [falling, partial curve, poor fit]

COc1ccccc1N1CCN(C(=O)c2cc(-c3ccc(C)cc3)on2)CC1
cell number change: -14.1%

CC1(C)CC(=O)C=C(NCCc2c[nH]c3ccccc23)C1
cell number change: 30.4% | AC50 [2]: 29.1 µM [rising, single point]

COc1cc(CNc2ccc(N3CCN(C(C)=O)CC3)cc2)ccc1OCc1ccc(F)cc1
cell number change: -11.8% | AC50 [1]: 3.66 µM [falling, single point]

COc1ccc(C(=O)N[C@H](C(=O)NCc2ccc(C)cc2)C(C)C)cc1
cell number change: 23.9% | AC50 [2]: 29.1 µM [falling, single point]

O=C(Nc1cccc(S(=O)(=O)Nc2ccc(Cl)cc2)c1)c1cc2c(s1)CCCC2
cell number change: -27.9% | AC50 [2]: 32.6 µM [falling, single point]

O=C(O)c1ccc(NC2=C(Cl)C(=O)c3ccccc3C2=O)cc1
cell number change: -63.5% | AC50 [1]: 23.1 µM [falling, partial curve] | AC50 [2]: 5.17 µM [falling, partial curve, poor fit]

CCOC(=O)[C@H]1[C@H]2COc3ccc(Cl)cc3[C@@H]2N2C(=O)CN(CC3CCCO3)C(=O)[C@@]12C (some centres undefined)
cell number change: 10.5% | AC50 [2]: 0.82 µM [rising, single point]

CCNC(=O)Cc1c(OC)ccc2cc(Br)ccc12
cell number change: 12.2%

COc1ccc(S(N)(=O)=O)cc1C(=O)N1CCCC1
cell number change: -46.3% | AC50 [1]: 29.1 µM [falling, single point]

O=C(NCCc1ccccc1)C1CCC(Cn2c(=O)c3ccccc3n(Cc3cccnc3)c2=O)CC1 (centres undefined)
cell number change: -7.37% | AC50 [2]: 29.1 µM [rising, partial curve, poor fit]

Cc1cc(C)nc(N/N=C/c2ccc([N+](=O)[O-])o2)n1
cell number change: -25.6% | AC50 [2]: 23.1 µM [falling, partial curve]

Cc1[nH][nH]c(=O)c1C(c1ccc(-c2ccc(C(=O)O)cc2)o1)c1c(C)[nH][nH]c1=O
cell number change: -17.6% | AC50 [1]: 0.013 µM [falling, full curve, poor fit] | AC50 [2]: 0.00651 µM [falling, full curve]

O=C(NNS(=O)(=O)c1ccc(F)cc1)c1ccc([N+](=O)[O-])cc1Cl
cell number change: 34.5% | AC50 [2]: 6.51 µM [rising, single point]

C/C=C/c1ccc(OC)c(OC(C)=O)c1
cell number change: 21.3% | AC50 [2]: 4.11 µM [rising, single point]

CCOCCCNCC(=O)NCC1CCCCC1
cell number change: -20.7% | AC50 [2]: 0.58 µM [falling, single point]

COC(=O)N/N=C/c1ccc([N+](=O)[O-])s1
cell number change: -12.2% | AC50 [2]: 18.4 µM [falling, single point]

COc1cc2ncnc(NCc3ccccc3C)c2cc1OC
AC50 [2]: 0.13 µM [falling, full curve, poor fit]

CCn1c(NC(=O)/C=C/c2ccc(F)cc2)nc2ccccc21
cell number change: 7.62%

COc1ccc(C(=O)Nc2ccc(NC(C)=O)cc2)cc1S(=O)(=O)N(C)Cc1ccccc1
cell number change: 2.74%

O=C(c1ccccc1-c1nc2ccccc2[nH]1)N1CCOCC1
cell number change: 13% | AC50 [2]: 23.1 µM [rising, single point]

CN(C)c1ccc(C(=S)N2CCCCC2)cc1Br
cell number change: 12.1% | AC50 [2]: 2.51 µM [falling, partial curve, poor fit]

Cc1cc(C)nc(SCC(=O)Nc2cccc(S(=O)(=O)N(C)C)c2)n1
cell number change: 101% | AC50 [1]: 13 µM [rising, partial curve, poor fit]

COc1ccc(NC(=O)CCn2cccc2)cc1
cell number change: -0.234% | AC50 [2]: 0.206 µM [falling, full curve, poor fit]

CC(C)COC(=O)CCNc1n[nH]c(=O)[nH]c1=O
cell number change: -209% | AC50 [1]: 20.6 µM [falling, partial curve]

CCN(CC)S(=O)(=O)c1ccc(N2CCOCC2)c(NC(=O)COc2ccc(Cl)cc2)c1
cell number change: 31.2% | AC50 [2]: 29.1 µM [rising, single point]

Cc1ccc2nc(-c3ccc(NS(=O)(=O)c4ccccc4)cc3)sc2c1
cell number change: -34.7% | AC50 [1]: 0.731 µM [falling, full curve] | AC50 [2]: 0.82 µM [falling, full curve, poor fit]

CCCCOC(=O)C1=C(C)NC(=O)NC1c1cccc([N+](=O)[O-])c1 (centres undefined)
cell number change: -51.6% | AC50 [1]: 18.4 µM [falling, single point]

COc1ccc(/C=C2\SC(=S)N(CCC(=O)N(CCO)Cc3ccccc3)C2=O)cc1OC
cell number change: -31% | AC50 [1]: 2.31 µM [falling, full curve] | AC50 [2]: 1.64 µM [falling, partial curve]

CC(NC(=O)Cn1ccsc1=N)C12CC3CC(CC(C3)C1)C2 (centres undefined)
cell number change: 2.1% | AC50 [2]: 0.103 µM [rising, full curve, poor fit]

O=C(COc1ncnc2ccccc12)NC(=O)NCc1ccccc1
cell number change: 2.8% | AC50 [2]: 18.4 µM [rising, partial curve]

Cc1ccc(NC(=O)CN(C)C(=O)COC(=O)COc2ccc(C#N)cc2)cc1
cell number change: 1.69% | AC50 [2]: 29.1 µM [falling, single point]

COc1cc(/C=C2/CCC/C(=C\c3cc(O)c(OC)c(Cl)c3)C2=O)cc(Cl)c1O
cell number change: -42.1% | AC50 [1]: 29.1 µM [falling, single point] | AC50 [2]: 20.6 µM [falling, partial curve, poor fit]

O=C(COC(=O)c1n[nH]c2ccccc12)NC(=O)NC1CCCCC1
cell number change: -32.8% | AC50 [1]: 20.6 µM [falling, single point]

CCOC(=O)Cn1c(=NC(=O)C2COc3ccccc3O2)sc2cc(S(N)(=O)=O)ccc21 (centres undefined)
cell number change: 3.73%

COc1cc(/C=C2\SC(=S)N(CCC(=O)Nc3cccc(O)c3)C2=O)cc(OC)c1OC
AC50 [2]: 11.6 µM [falling, single point]

Cn1c(N2CCN(C(=O)Nc3ccc(C(F)(F)F)cc3)CC2)nc2ccccc21
cell number change: -41.7% | AC50 [1]: 29.1 µM [falling, single point]

Cc1cccc(NC(=O)CNC(=O)COC(=O)c2ccco2)c1C
cell number change: -35.9% | AC50 [1]: 25.9 µM [falling, partial curve, poor fit] | AC50 [2]: 25.9 µM [falling, partial curve]

Oc1c(CN2CCN(c3ccc(F)cc3)CC2)cc(Cl)c2cccnc12
cell number change: -70.8% | AC50 [1]: 32.6 µM [falling, single point] | AC50 [2]: 29.1 µM [falling, partial curve, poor fit]

COc1cc(NS(=O)(=O)c2ccc(NC(=S)NC(=O)c3ccccc3)cc2)nc(OC)n1
cell number change: 15.2% | AC50 [2]: 0.58 µM [rising, single point]

Cc1ccc(NS(=O)(=O)c2coc(C(N)=O)c2)cc1F
cell number change: 8.07%

CC(C)(C)c1ccc(OCC(=O)Nc2cccc(S(=O)(=O)NC3=NCCCCC3)c2)cc1
cell number change: -13.1% | AC50 [2]: 29.1 µM [falling, single point]

CCOc1cc(C(=O)Nc2ccc(NC(C)=O)cc2)ccc1OCC(=O)N1CCCCC1
cell number change: 27.1% | AC50 [2]: 0.58 µM [rising, single point]

O=c1[nH]c(NCCCO)nc2c1C1(CCCC1)Cc1ccccc1-2
cell number change: -54.9% | AC50 [1]: 1.16 µM [falling, full curve] | AC50 [2]: 23.1 µM [falling, single point]

O=[N+]([O-])c1ccc(N2CCOCC2)cc1N1CCCCC1
cell number change: 43.3%

O=S(=O)(c1ccccc1)n1c(C(O)c2ccccn2)cc2ccccc21 (centres undefined)
cell number change: -2.37%

CC12CN3CC(C)(CN(C1)C3c1ccc(Br)cc1)C2=O (centres undefined)
cell number change: -8.98% | AC50 [2]: 4.11 µM [falling, single point]

CNc1nc(C)c(C#N)cc1C(C)=O
AC50 [2]: 3.26 µM [falling, partial curve]

COCCCN1C(=O)c2[nH]nc(-c3ccccc3O)c2C1c1ccc(Cl)cc1 (centres undefined)
cell number change: -54.4% | AC50 [1]: 2.91 µM [rising, single point]

Cc1cccn2c(=O)c3cc(S(=O)(=O)c4ccc(Br)cc4)c(=N)n(C4CCCC4)c3nc12
cell number change: 40% | AC50 [1]: 9.2 µM [rising, partial curve, poor fit] | AC50 [2]: 29.1 µM [rising, single point]

COc1ccc(/C=N/Nc2nn3cnnc3c3ccccc23)cc1
cell number change: -25.3% | AC50 [2]: 16.4 µM [falling, single point]

O=C1CC(=O)N(CCc2ccc(F)cc2)C(=O)N1
cell number change: -8.77%

Cc1ccc(Cn2ccc(NC(=O)c3cc(-c4cccs4)on3)n2)cc1
cell number change: -19.7% | AC50 [2]: 1.03 µM [rising, partial curve]

CC(=O)Nc1c(C)ccc(CNC(=O)COc2ccc(F)cc2)c1C
cell number change: 46.6% | AC50 [1]: 0.82 µM [rising, full curve] | AC50 [2]: 2.31 µM [rising, partial curve]

COc1ccc(SCC(=O)Nc2ccccc2Cl)cc1
cell number change: -4% | AC50 [1]: 1.3 µM [falling, full curve] | AC50 [2]: 1.16 µM [falling, full curve]

Cc1cccc2sc(N(CCCN(C)C)C(=O)c3ccc4ncsc4c3)nc12
cell number change: 1.19% | AC50 [2]: 7.31 µM [rising, partial curve]

COc1ccc(NC(=O)CSc2nc(SC)ns2)cc1
cell number change: -12.8% | AC50 [2]: 5.17 µM [falling, single point]

CCOC(=O)c1sc(N)nc1C(C)(C)C
cell number change: 29.9% | AC50 [2]: 16.4 µM [rising, partial curve, poor fit]
